Data: patent US8653023B1, “Dual beneficial effect of dopamine enhancing and neuroprotective actions of PKC delta inhibitors for treatment of Parkinson's disease” (Iowa State University Research Foundation, Inc., priority 2006, dated 2014)
Some results were stated once for a whole list of compounds, not compound by compound.

System: tyrosine hydroxylase (TH)
Test: TH phosphorylation in N27 cells (Western blot, immunofluorescence)
Type: cell-based, rat
Settings: rottlerin vs DMSO, PKCδ-DN vs LacZ
Experimental: PC12 cells, differentiated N27 dopaminergic cells and primary mesencephalic neurons were exposed to 1-10 μM rottlerin for the duration of the experiment. DMSO (0.01%) was used as vehicle control. PKCδ-DN- and Lac Z-expressing N27 cells were only treated with 0.01% DMSO. […] Untreated or vehicle treated cells were used as control samples.
Cell and brain lysates containing equal amounts of protein were loaded in each lane and separated on a 10-12% SDS-PAGE gel as described previously (Kaul et al., 2003). After the separation, proteins were transferred to nitrocellulose membrane, and nonspecific binding sites were blocked by treating with 5% nonfat dry milk powder. […] Secondary antibody-bound proteins were detected using Amersham's ECL chemiluminescence kit. […] Western blot images were captured with a Kodak 2000 MM imaging system and data were analyzed using 1D Kodak imaging analysis software.
Immunostaining of PKCδ, TH, Ser40 P-TH and Ser31 P-TH was performed in PC12, N27 and primary mesencephalic neurons. […] Then the coverslips containing stained cells were washed with PBS, mounted on a slide, and viewed under a Nikon inverted fluorescence microscope (Model TE-2000U); images were captured with a SPOT digital camera (Diagnostic Instruments, Sterling Heights, Mich.).

B1: PKCδ-DN: loss of function PKCδ-V5 epitope tagged mutant protein, lysine 376 to arginine, kinase inactive (protein, UniProt P28867 1-674, looked up, variant K376R)
chain: MAPFLRISFNSYELGSLQVEDEASQPFCAVKMKEALSTERGKTLVQKKPTMYPEWKTTFDAHIYEGRVIQIVLMRAAEDPVSEVTVGVSVLAERCKKNNGKAEFWLDLQPQAKVLMCVQYFLEDGDCKQSMRSEEEAKFPTMNRRGAIKQAKIHYIKNHEFIATFFGQPTFCSVCKEFVWGLNKQGYKCRQCNAAIHKKCIDKIIGRCTGTATNSRDTIFQKERFNIDMPHRFKVYNYMSPTFCDHCGSLLWGLVKQGLKCEDCGMNVHHKCREKVANLCGINQKLLAEALNQVTQRSSRKLDTTESVGIYQGFEKKPEVSGSDILDNNGTYGKIWEGSTRCTLENFTFQKVLGKGSFGKVLLAELKGKDKYFAIRCLKKDVVLIDDDVECTMVEKRVLALAWESPFLTHLICTFQTKDHLFFVMEFLNGGDLMFHIQDKGRFELYRATFYAAEIICGLQFLHSKGIIYRDLKLDNVMLDRDGHIKIADFGMCKENIFGEGRASTFCGTPDYIAPEILQGLKYSFSVDWWSFGVLLYEMLIGQSPFHGDDEDELFESIRVDTPHYPRWITKESKDIMEKLFERDPDKRLGVTGNIRIHPFFKTINWSLLEKRKVEPPFKPKVKSPSDYSNFDPEFLNEKPQLSFSDKNLIDSMDQEAFHGFSFVNPKFEQFLDI
modifications: full-length V5 epitope tag
- phospho TH ser40 (60 kDa) band, densitometry, increase: 3-4 fold
